Reference: PubChem BioAssay AID651640 (Broad Institute, 2012)
Out of some 350,000 compounds screened, about 6,000 (1.7%) were called active. The inconclusive results got no clear call from the source; some entries with a clear call stand among them for comparison. Rule as the data show it: active = CPE inhibition above about 20% (passing the limit was not always enough); inconclusive = no clear call, values can overlap the other calls; tested in BHK-21 cells.

Assay: protection of cells from dengue 2 killing – plate reader, single concentration, primary screen (AID 651640);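 also: 0% = median of neutral control wells and 100% = median of positive control wells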
Conditions: DENV2-infected cells, cytopathic effect rescue, at 9.99 µM, stronger effect = higher value

Question: For CC(C)(C)c1ccc(C#C[C@@H]2C=C[C@H](O)[C@@H](COC(=O)Nc3ccccc3)O2)cc1, which CPE inhibition is on record?
Answer: The CPE inhibition was inconclusive: 38.1%.

Question: Which CPE inhibition does the source give for CO[C@@H](CN(C)C(=O)c1cc(Cl)cc(Cl)c1)[C@@H](C)CN(C(=O)Nc1ccc(F)cc1)[C@@H](C)CO here?
Answer: Its CPE inhibition is inconclusive: 34.5%.

Question: Which CPE inhibition does the source give for CC(C)CN(CC(C)C)c1nnc(N)s1 here?
Answer: The CPE inhibition was inconclusive: 81.9%.

Question: Which CPE inhibition does the source give for Cc1noc(C)c1NC(=O)Nc1ccc2c(c1)CC(=O)N([C@H](C)CO)C[C@@H](C)[C@H](CN(C)CC1CC1)O2 here?
Answer: Its CPE inhibition is inconclusive: 22.1%.

Question: For COc1ccc(S(=O)(=O)NCCc2nnc3ccc(SCC(=O)Nc4cc(C)on4)nn23)cc1, which CPE inhibition is on record?
Answer: The CPE inhibition was inactive: -0.608%.

Question: With COc1ccc(-c2oc3c(c2C#CC(C)(C)O)C(OCCO)CC3)cc1 (stereo not given) as the compound, how does the CPE inhibition read?
Answer: The CPE inhibition was inconclusive: 33.5%.

Question: For COc1cccc(CNC(=O)[C@@H]2CCCN2C(=O)OC(C)(C)C)c1, which CPE inhibition is on record?
Answer: The CPE inhibition was inconclusive: 37.3%.

Question: Which CPE inhibition does the source give for COc1ccc(N2CCN(C(=O)CN(Cc3ccccc3)S(C)(=O)=O)CC2)cc1 here?
Answer: The CPE inhibition was inconclusive: 20.8%.

Question: For CCOc1cc(/C=N/NC(=O)C(=O)NCc2cccnc2)ccc1O, which CPE inhibition is on record?
Answer: Its CPE inhibition is inconclusive: 20.3%.

Question: Which CPE inhibition does the source give for COc1ccc(C#Cc2ccc3c(c2)O[C@@H](CN(C)C(=O)c2ccccn2)[C@H](C)CN([C@H](C)CO)S3(=O)=O)cc1 here?
Answer: The CPE inhibition was inactive: 2.04%.

Question: With CCN1[C@@H]2Cn3c(ccc(-c4ccccc4OC)c3=O)[C@H]1[C@@H](C(=O)N[C@H](C)c1ccccc1)[C@@H]2CO as the compound, how does the CPE inhibition read?
Answer: The CPE inhibition was inactive: 1.19%.

Question: With Cc1sc(NC(=O)C2CSC3(C)CCC(=O)N23)nc1-c1ccccc1 (stereo not given) as the compound, how does the CPE inhibition read?
Answer: The CPE inhibition was inconclusive: 29.2%.

Question: With Cc1cc(N(C)N)nc(NC(=O)NS(=O)(=O)c2ccccc2Cl)n1 as the compound, how does the CPE inhibition read?
Answer: The CPE inhibition was inactive: 0.0345%.

Question: With CCn1cnc2cc([N+](=O)[O-])ccc21 as the compound, how does the CPE inhibition read?
Answer: The CPE inhibition was inconclusive: 33.9%.

Question: Which CPE inhibition does the source give for CC1=CC(C)C2C(=O)N(c3ccccc3)NC(=O)C2C1 (stereo not given) here?
Answer: The CPE inhibition was inconclusive: 79.3%.

Question: With O=C(Nc1ccc(F)cc1)Nc1ccc2c(c1)[C@H]1C[C@@H](CC(=O)N3CCOCC3)O[C@@H](CO)[C@H]1O2 as the compound, how does the CPE inhibition read?
Answer: The CPE inhibition was inactive: 18%.

Question: Which CPE inhibition does the source give for COc1ccc(-c2cnc(C(O)c3ccc(OC)c(F)c3)[nH]2)cc1 (stereo not given) here?
Answer: The CPE inhibition was inconclusive: 54.6%.

Question: For COc1cccc(C#Cc2ccc([C@@H]3[C@@H](CO)N(C(=O)C4CCCCC4)[C@H]3C#N)cc2)c1, which CPE inhibition is on record?
Answer: Its CPE inhibition is inconclusive: 37%.

Question: With Cc1ccc(S(=O)(=O)Nc2ccc3c(c2)C(=O)N([C@@H](C)CO)C[C@@H](C)[C@H](CN(C)S(=O)(=O)c2c(C)noc2C)OCCCC[C@H](C)O3)cc1 as the compound, how does the CPE inhibition read?
Answer: Its CPE inhibition is inactive: -15.2%.

Question: With C[C@@H]1CN([C@@H](C)CO)C(=O)Cc2cc(NS(=O)(=O)c3ccc(Cl)cc3)ccc2O[C@@H]1CN(C)S(C)(=O)=O as the compound, how does the CPE inhibition read?
Answer: The CPE inhibition was inactive: -4.24%.

Question: For CCC(=O)Nc1ccc2c(c1)C(=O)N(C)C[C@H](OC)[C@H](C)CN(C(=O)Cc1cccnc1)[C@@H](C)CO2, which CPE inhibition is on record?
Answer: Its CPE inhibition is inconclusive: 22.2%.

Question: Which CPE inhibition does the source give for CO[C@H]1CN(C)C(=O)c2ccc(NC(C)=O)cc2OC[C@@H](C)N(Cc2cccc(F)c2)C[C@H]1C here?
Answer: The CPE inhibition was inconclusive: 29.8%.

Question: With C[C@@H]1CN([C@@H](C)CO)C(=O)Cc2cc(NC(=O)CCCN(C)C)ccc2O[C@H]1CN(C)S(=O)(=O)c1cccs1 as the compound, how does the CPE inhibition read?
Answer: The CPE inhibition was inconclusive: 44.8%.

Question: With CCC(=O)Nc1cccc(-c2nc3ncccc3o2)c1C as the compound, how does the CPE inhibition read?
Answer: The CPE inhibition was inconclusive: 35%.

Question: For Clc1c(-c2ccccc2)nnn1-c1ccccc1, which CPE inhibition is on record?
Answer: Its CPE inhibition is inconclusive: 49.6%.

Question: With CC(C)CC(=NNC(=O)c1ccncc1)c1cc(Cl)ccc1O as the compound, how does the CPE inhibition read?
Answer: The CPE inhibition was inconclusive: 34.8%.

Question: With O=S(=O)(O)c1ccc(O)c2cc(Nc3ccccc3)ccc12 as the compound, how does the CPE inhibition read?
Answer: Its CPE inhibition is inactive: -4.5%.

Question: For O=C(NCCN1CCOCC1)C(=O)NCC1OCCN1S(=O)(=O)c1ccc(Br)cc1 (stereo not given), which CPE inhibition is on record?
Answer: The CPE inhibition was inconclusive: 35.5%.

Question: For CCN(CC)C(=O)[C@H]1C[C@H](CC(=O)NC(C)(C)C)C(=O)N2CCc3c([nH]c4cc(-c5ccco5)ccc34)[C@]12C, which CPE inhibition is on record?
Answer: Its CPE inhibition is inactive: 1.83%.

Question: Which CPE inhibition does the source give for CCC(C)Sc1ccc([C@H]2N[C@@](Cc3ccccc3)(C(=O)OC)[C@H]3C(=O)N(CC)C(=O)[C@@H]23)cc1OC (stereo not given in full) here?
Answer: The CPE inhibition was inconclusive: 26.4%.

Question: For COc1cccc(-c2ncc3ccccc3c2COC(=O)c2cccs2)c1, which CPE inhibition is on record?
Answer: The CPE inhibition was inconclusive: 62%.

Question: With O=C(CNC(=O)c1cccs1)c1ccc(Cl)cc1 as the compound, how does the CPE inhibition read?
Answer: The CPE inhibition was inconclusive: 24.1%.

Question: Which CPE inhibition does the source give for COc1ccc2cc(S(=O)(=O)N3CCCC3)ccc2c1 here?
Answer: Its CPE inhibition is inconclusive: 34.8%.

Question: For COc1ccc(NC(=O)Nc2ccc3c(c2)C(=O)N([C@H](C)CO)C[C@H](C)[C@@H](CN(C)S(=O)(=O)c2ccc(F)cc2)O3)cc1, which CPE inhibition is on record?
Answer: Its CPE inhibition is inconclusive: 24.3%.

Question: Which CPE inhibition does the source give for CN(C)CC(=O)N1[C@@H]2c3ccc(-c4ccc(F)cc4)c(=O)n3C[C@@H]2[C@@H](CO)[C@@H]1C(=O)NC1CCCC1 here?
Answer: Its CPE inhibition is inactive: 13.6%.

Question: For CN(C)C(=O)c1cccc(-c2ccccc2[C@H]2[C@H](C#N)N(C(=O)C3CC3)[C@H]2CO)c1, which CPE inhibition is on record?
Answer: Its CPE inhibition is inactive: 6.42%.

Question: Which CPE inhibition does the source give for O=C(/C=C/c1ccco1)Nc1scc(-c2ccccc2)c1C(=O)O here?
Answer: The CPE inhibition was inactive: -3.7%.

Question: Which CPE inhibition does the source give for Cc1ccccc1S(=O)(=O)N1CC[C@@H]2[C@@H](CO)N(C)c3ccc(Br)cc3[C@@H]21 here?
Answer: The CPE inhibition was inactive: -14.4%.

Question: With C/C=C/c1ccc([C@H]2[C@@H](CO)N(c3ncc(CC)s3)[C@H]2C#N)cc1 as the compound, how does the CPE inhibition read?
Answer: Its CPE inhibition is inconclusive: 21.8%.

Question: Which CPE inhibition does the source give for C[C@@H]1CN([C@H](C)CO)C(=O)Cc2cc(NC(=O)Nc3ccc(C(F)(F)F)cc3)ccc2O[C@@H]1CN(C)S(=O)(=O)c1cccs1 here?
Answer: The CPE inhibition was active: 26.9%.

Question: Which CPE inhibition does the source give for Cc1ccc(S(=O)(=O)Nc2cccc3c2O[C@H](CN(C)Cc2ccc4c(c2)OCO4)[C@@H](C)CN([C@H](C)CO)C3=O)cc1 here?
Answer: Its CPE inhibition is inactive: 5.37%.

Question: For O=C(Nc1nnc(S(=O)(=O)N2CCCCC2)s1)c1ccc(Cl)cc1, which CPE inhibition is on record?
Answer: The CPE inhibition was inconclusive: 33.6%.

Question: For O=C(Nc1ccc2ccccc2c1)C(c1ccccc1)n1c(=O)c(-c2cc3ccccc3[nH]2)nc2ccccc21 (stereo not given), which CPE inhibition is on record?
Answer: Its CPE inhibition is inconclusive: 27.3%.

Question: Which CPE inhibition does the source give for O=C(CC1CC1)N1[C@H](CO)[C@H]2c3ccccc3N(S(=O)(=O)c3ccccc3)C[C@H]21 here?
Answer: Its CPE inhibition is inactive: -0.679%.

Question: For Cc1noc(C)c1S(=O)(=O)N(C)C[C@@H]1OCCCC[C@H](C)Oc2ccc(NC(=O)NC3CCCCC3)cc2C(=O)N([C@H](C)CO)C[C@H]1C, which CPE inhibition is on record?
Answer: The CPE inhibition was inconclusive: 47.6%.
